This is a selection; strong and weak results do not stand in their true shares. Calls of active or inactive are those of the source. Calls follow the shape of the dose curve; as a rule, active = well fitted curve in the direction sought with a large enough effect; inconclusive = small, poorly fitted or top-dose-only effect, or another doubt; inactive = no such curve, though single readings can be large or run the other way.
Assay: qHTS Assay for Modulators of miRNAs and/orActivators of miR-21;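 also: % of control where 0% means no effect; miR-21 action dims this reporter so a rising signal means less miR-21 action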
Settings: HeLa miR-21 FLuc reporter, luciferase, 48 h; at 38.3 µM (top of the series)
From the text: MLSCN Grant: 1 R21 NS059478-01 Assay Provider: Qihong Huang, The Wistar Institute NCGC Assay Overview: MicroRNAs (miRNAs) are endogenously encoded small (~20-25 nucleotides), nonprotein-coding RNAs that are involved in post-transcriptional repression of target messenger RNAs (mRNAs) (Le and Hannon, 2004). Estimated to be involved in the regulation of 30% of all protein-coding mRNAs (Filipowicz et al., 2008), miRNAs play a significant role in many biological processes including cellular differentiation and tissue development (Ghildiyal and Zamore, 2009).
NCGC Assay Protocol Summary: Reagents: HeLa cells stably expressing firefly luciferase (FLuc) under the control of a CMV promoter (upstream) and a miR-21 binding sequence directly downstream of the gene. These cells endogenously express miR-21. Control compounds used were compound C3 (provided by collaborator), N6-phenyladenosine (MP Biomedicals, 0215379625), and DMSO. Assay Summary: 6uL of HeLa miR-21-FLuc cells in assay buffer (DMEM, Invitrogen #21063-029; 10% FBS, HyClone #SH30071.03) were dispensed at 2000cells/well (3.3 x 10^5 cells/mL) into Greiner solid-white TC-treated 1536-well plates using a Multidrop Combi (Thermo Fisher Scientific). Plates were incubated for one hour at 37 degree Celsius, 95% humidity, 5% CO2. These assay plates were then treated with 23nL of compound or DMSO using a Kalypsys pin tool, which allows for delivery of a 24-point titration of each compound to the assay plate, with a final compound concentration ranging from approximately 40uM to 5pM. Assay plates were then incubated for 48 hours. After incubation, plates were allowed to come to RT for one hour prior to delivery of 3uL of 3X luciferase detection reagent. After a 15 minute incubation to allow for cell lysis, luciferase activity was measured using a ViewLux CCD imager (PerkinElmer), with an average exposure time of 2-12 seconds. Keywords: NIH Roadmap, MLPCN, MLSMR, qHTS, miR-21, microRNA, firefly luciferase, FLuc.

Activity change, positive = activation, inactive:
O=C1CC(c2ccccc2)Oc2cc(O)ccc21 (stereo not drawn) -48.5%
O=c1ccc2ccc(OCc3ccccc3)cc2o1 -55%
Cc1cc(=O)oc2cc(OCc3ccccc3)ccc12 -70.4%

From PubChem BioAssay AID2288 (National Center for Advancing Translational Sciences (NCATS), 2010)
